Pks13 thioesterase: 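Polyketide synthase Pks13, Mycobacterium tuberculosis (UniProt I6X8D2). Enzyme assay of the thioesterase domain of polyketide synthase 13; the read-out is not stated. Compounds at 30 µM. The record gives no direction; the compounds picked for IC50 retests had high values, so higher reads as stronger inhibition. Size under these conditions: about 67,000 compounds, about 300 of them at 50% or above in at least one test.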
PfKRS1: 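Enzyme assay of the cytosolic lysyl-tRNA synthetase in 384-well plates, read by luminescence. Target: Lysine-tRNA ligase, Plasmodium falciparum 3D7 (UniProt Q8IDJ8). Compounds at 30 µM. Higher reads as stronger inhibition, judged from the few compounds that gave an IC50. About 69,000 compounds were tested under these conditions; 0.071% (about 49) showed 50% or more at least once.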
LiHisRS: 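Enzyme assay of histidyl-tRNA synthetase; the read-out is not stated. Target: Histidine-tRNA ligase, Leishmania infantum (UniProt A4I591). Compounds at 30 µM. Direction is inferred from retests: higher values go with stronger inhibition. The assay is labelled LdHisRS but filed under L. infantum. Size under these conditions: about 69,000 compounds, about 410 of them at 50% or above in at least one test.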
TcHisRS: 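Histidine-tRNA ligase, Trypanosoma cruzi CL Brener (UniProt Q4DA54). Enzyme assay of histidyl-tRNA synthetase; the read-out is not stated. Concentration: 30 µM. The record gives no direction; compounds that gave an IC50 in retests scored well above the rest, so higher reads as stronger inhibition. Of about 69,000 compounds tested this way, about 31 (0.045%) reached 50% or more in at least one test.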

The chains behind the UniProt entries cited, without tags or fusion partners. Residues count along the entry.
UniProt I6X8D2, whole entry: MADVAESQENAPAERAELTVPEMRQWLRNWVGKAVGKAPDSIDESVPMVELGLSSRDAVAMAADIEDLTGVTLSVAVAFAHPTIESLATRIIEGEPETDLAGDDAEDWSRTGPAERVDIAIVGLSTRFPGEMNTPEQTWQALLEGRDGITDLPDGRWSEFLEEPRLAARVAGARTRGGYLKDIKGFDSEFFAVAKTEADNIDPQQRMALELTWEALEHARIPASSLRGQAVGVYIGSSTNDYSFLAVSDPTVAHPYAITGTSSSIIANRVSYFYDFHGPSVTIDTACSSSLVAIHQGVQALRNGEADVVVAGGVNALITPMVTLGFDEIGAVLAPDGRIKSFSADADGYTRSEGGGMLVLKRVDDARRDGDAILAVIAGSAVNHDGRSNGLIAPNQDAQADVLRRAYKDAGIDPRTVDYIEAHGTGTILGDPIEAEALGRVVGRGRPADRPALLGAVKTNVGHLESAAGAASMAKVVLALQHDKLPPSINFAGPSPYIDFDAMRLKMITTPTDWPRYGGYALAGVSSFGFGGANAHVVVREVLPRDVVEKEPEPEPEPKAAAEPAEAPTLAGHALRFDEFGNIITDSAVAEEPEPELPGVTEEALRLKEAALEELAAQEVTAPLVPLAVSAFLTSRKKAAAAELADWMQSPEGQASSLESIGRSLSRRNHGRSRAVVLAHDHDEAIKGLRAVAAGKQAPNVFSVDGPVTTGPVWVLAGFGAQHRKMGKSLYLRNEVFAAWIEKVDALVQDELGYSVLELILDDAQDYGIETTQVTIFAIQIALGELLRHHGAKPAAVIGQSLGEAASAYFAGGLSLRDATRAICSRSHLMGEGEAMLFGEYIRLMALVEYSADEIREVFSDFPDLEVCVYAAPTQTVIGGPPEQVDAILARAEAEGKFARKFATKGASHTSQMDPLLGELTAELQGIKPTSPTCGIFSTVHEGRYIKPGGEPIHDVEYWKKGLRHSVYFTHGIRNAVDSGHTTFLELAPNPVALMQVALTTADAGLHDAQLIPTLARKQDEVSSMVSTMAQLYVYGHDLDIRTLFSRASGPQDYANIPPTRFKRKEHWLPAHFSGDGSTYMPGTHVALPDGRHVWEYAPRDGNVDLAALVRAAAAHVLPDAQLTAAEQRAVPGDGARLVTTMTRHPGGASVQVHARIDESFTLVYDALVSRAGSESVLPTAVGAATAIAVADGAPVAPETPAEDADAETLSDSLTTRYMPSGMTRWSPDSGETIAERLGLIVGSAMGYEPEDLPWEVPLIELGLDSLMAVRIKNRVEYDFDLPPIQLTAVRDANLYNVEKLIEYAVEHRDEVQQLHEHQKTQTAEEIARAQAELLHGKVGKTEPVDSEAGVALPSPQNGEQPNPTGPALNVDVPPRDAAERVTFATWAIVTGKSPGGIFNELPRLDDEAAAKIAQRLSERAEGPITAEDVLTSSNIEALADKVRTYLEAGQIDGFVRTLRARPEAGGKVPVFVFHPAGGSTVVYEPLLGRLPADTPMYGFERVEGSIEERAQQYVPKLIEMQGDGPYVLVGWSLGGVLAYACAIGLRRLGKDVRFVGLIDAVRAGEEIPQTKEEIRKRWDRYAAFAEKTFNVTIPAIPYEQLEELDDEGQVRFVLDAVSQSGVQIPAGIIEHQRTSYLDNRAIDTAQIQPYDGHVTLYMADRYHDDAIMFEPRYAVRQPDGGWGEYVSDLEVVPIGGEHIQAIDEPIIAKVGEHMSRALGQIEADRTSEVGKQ
UniProt Q8IDJ8, 1-583: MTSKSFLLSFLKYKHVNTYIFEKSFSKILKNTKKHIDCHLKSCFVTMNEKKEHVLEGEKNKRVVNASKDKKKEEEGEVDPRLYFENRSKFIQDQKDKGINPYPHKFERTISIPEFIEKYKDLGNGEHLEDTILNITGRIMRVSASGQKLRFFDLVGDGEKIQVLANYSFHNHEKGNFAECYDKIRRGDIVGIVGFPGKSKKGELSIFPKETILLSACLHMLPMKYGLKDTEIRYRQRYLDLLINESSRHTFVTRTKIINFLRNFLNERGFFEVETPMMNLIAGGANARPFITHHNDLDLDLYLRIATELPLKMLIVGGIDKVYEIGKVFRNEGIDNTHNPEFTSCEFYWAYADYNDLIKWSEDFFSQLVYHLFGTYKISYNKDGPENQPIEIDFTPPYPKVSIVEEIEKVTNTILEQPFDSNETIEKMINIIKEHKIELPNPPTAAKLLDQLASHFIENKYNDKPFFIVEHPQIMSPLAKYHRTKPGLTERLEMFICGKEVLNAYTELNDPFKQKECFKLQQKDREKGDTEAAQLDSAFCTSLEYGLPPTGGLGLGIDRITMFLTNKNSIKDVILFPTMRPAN
UniProt A4I591, 1-473: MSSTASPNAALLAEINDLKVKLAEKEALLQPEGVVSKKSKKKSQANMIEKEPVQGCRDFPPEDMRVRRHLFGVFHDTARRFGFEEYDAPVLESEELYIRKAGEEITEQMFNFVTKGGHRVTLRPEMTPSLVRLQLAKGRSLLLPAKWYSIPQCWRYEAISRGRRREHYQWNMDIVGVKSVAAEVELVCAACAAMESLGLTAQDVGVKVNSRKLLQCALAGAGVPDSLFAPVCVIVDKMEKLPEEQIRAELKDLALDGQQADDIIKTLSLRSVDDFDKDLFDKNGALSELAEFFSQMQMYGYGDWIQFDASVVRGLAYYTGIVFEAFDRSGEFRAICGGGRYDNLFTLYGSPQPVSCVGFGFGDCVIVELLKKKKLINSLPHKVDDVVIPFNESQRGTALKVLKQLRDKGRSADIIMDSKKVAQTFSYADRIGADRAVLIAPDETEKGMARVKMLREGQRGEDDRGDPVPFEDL
UniProt Q4DA54, 1-478: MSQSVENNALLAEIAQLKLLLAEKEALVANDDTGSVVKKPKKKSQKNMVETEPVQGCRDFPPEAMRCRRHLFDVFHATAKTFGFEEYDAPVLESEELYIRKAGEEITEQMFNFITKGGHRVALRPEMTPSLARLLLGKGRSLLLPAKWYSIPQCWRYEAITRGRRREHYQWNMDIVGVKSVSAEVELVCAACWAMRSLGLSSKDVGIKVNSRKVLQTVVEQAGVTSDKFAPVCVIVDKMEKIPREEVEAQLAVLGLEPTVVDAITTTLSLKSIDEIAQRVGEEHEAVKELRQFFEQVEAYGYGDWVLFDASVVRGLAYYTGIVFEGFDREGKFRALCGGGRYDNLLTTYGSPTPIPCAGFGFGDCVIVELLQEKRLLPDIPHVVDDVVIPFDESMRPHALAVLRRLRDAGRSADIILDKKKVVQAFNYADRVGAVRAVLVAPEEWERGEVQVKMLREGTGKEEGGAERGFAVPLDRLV

Each number is a percent effect as filed.
How 0% and 100% were set is not recorded. Most values in the screen are low, and negative values occur.
The compounds are a random part of those screened.

{"compound": "CC1N(CC2CC2)C(=O)COC12CCN(Cc1nccs1)CC2", "stereo": "stereo not drawn", "PfKRS1": 1.086, "LiHisRS": 11.43, "TcHisRS": 2.479}
{"compound": "Cn1cc(C(=O)N2CCCC(Cc3cncc4ccccc34)C2)cn1", "stereo": "stereo not drawn", "Pks13 thioesterase": 3.836, "PfKRS1": 0.7141, "LiHisRS": 11.72, "TcHisRS": -2.281}
{"compound": "Cc1nc2n(n1)CC(NCc1cnn(-c3ccccc3)n1)CC2", "stereo": "stereo not drawn", "Pks13 thioesterase": -13.56, "PfKRS1": 2.229, "LiHisRS": 15.74, "TcHisRS": 6.745}
{"compound": "Cc1nn(C)c(C)c1NC(=O)CN1CCOC(CN(C)C)C1", "stereo": "stereo not drawn", "Pks13 thioesterase": -15.66, "PfKRS1": 4.898, "LiHisRS": 12.36, "TcHisRS": 8.808}
{"compound": "CC1CCN(c2nc(O)cc(C3CC(=O)N(C4CCCCC4)C3)n2)CC1", "stereo": "stereo not drawn", "Pks13 thioesterase": 17.53, "PfKRS1": 0.9254, "LiHisRS": 21.58, "TcHisRS": 4.215}
{"compound": "O=C(NC1CCCCC1)N1C[C@H]2CN(c3cnccn3)C[C@@]2(C(=O)O)C1", "Pks13 thioesterase": 8.857, "PfKRS1": 0.09239, "LiHisRS": 3.922, "TcHisRS": -2.469}
{"compound": "CN1CC(C(=O)NCc2cccnc2-n2cccn2)CC1=O", "stereo": "stereo not drawn", "Pks13 thioesterase": -12.18, "PfKRS1": -1.449, "LiHisRS": 15.04, "TcHisRS": 10.2}
{"compound": "Cc1nc(CCN2CCC(Oc3ccccc3F)CC2)c(C)s1", "Pks13 thioesterase": -11.15, "PfKRS1": 0.391, "LiHisRS": 3.306, "TcHisRS": 4.082}
{"compound": "CN(CC(=O)N1CCc2[nH]c3ccc(F)cc3c2C1)CC1OCCO1", "Pks13 thioesterase": -1.395, "PfKRS1": 0.2944, "LiHisRS": 15.22, "TcHisRS": 8.911}
{"compound": "CCN(CC)Cc1ccc(C(=O)NC2CCc3cc(F)ccc32)o1", "stereo": "stereo not drawn", "Pks13 thioesterase": -34.79, "PfKRS1": 1.186, "LiHisRS": 26.67, "TcHisRS": 2.597}
{"compound": "Cc1ccc2cc(C(=O)N3CCCCC3c3nc[nH]n3)ccc2n1", "stereo": "stereo not drawn", "Pks13 thioesterase": -0.2159, "PfKRS1": -1.338, "LiHisRS": 30.14, "TcHisRS": -1.093}
{"compound": "CC1CCN(C(=O)c2cn(-c3ccc(C(F)(F)F)cn3)nn2)CC1", "Pks13 thioesterase": -25.22, "PfKRS1": 6.14, "LiHisRS": 5.263, "TcHisRS": 7.263}
{"compound": "COc1ncccc1NC(=O)N1CCCC(CNC(=O)OC(C)(C)C)C1", "stereo": "stereo not drawn", "Pks13 thioesterase": -15.81, "PfKRS1": 4.472, "LiHisRS": 4.959, "TcHisRS": 8.163}
{"compound": "CC1CCc2nc(O)c(C(=O)NCc3ccccn3)cc2C1", "stereo": "stereo not drawn", "Pks13 thioesterase": 6.049, "PfKRS1": 7.381, "LiHisRS": 6.667, "TcHisRS": 1.136}
{"compound": "Cc1occc1C(=O)N1C[C@@H]2OCCN(CCN3CCCC3)[C@@H]2C1", "Pks13 thioesterase": -1.129, "PfKRS1": 0.04478, "LiHisRS": 6, "TcHisRS": 4.902}
{"compound": "CN(C)CCOCc1nnc2n1CCN(CC1CC1)CC2", "Pks13 thioesterase": -15.29, "PfKRS1": -1.321, "LiHisRS": 8.333, "TcHisRS": 4.762}
{"compound": "Cc1cc(C2CCC2)nc(N2CCC3(CCNC(=O)CC3)CC2)n1", "Pks13 thioesterase": 3.003, "PfKRS1": 5.435, "LiHisRS": 19.51, "TcHisRS": 8.173}
{"compound": "O=C(c1ccc(F)cc1F)N(CC(F)(F)F)C1CCOCC1", "Pks13 thioesterase": -8.554, "PfKRS1": 1.934, "LiHisRS": 15.05, "TcHisRS": 3.627}
{"compound": "CCCc1nnsc1C(=O)N1CCN(CC(O)C2CC2)CC1", "stereo": "stereo not drawn", "Pks13 thioesterase": 0.9472, "PfKRS1": 8.839, "LiHisRS": 0, "TcHisRS": 4.124}
{"compound": "Cc1n[nH]cc1CNC(C(=O)N1CCOCC1)c1ccccc1", "stereo": "stereo not drawn", "PfKRS1": -7.312, "LiHisRS": -2.521, "TcHisRS": 5.882}
{"compound": "Cc1noc(C)c1-c1cncc(C2CCCN2Cc2c[nH]cn2)n1", "stereo": "stereo not drawn", "Pks13 thioesterase": -22.24, "PfKRS1": 1.62, "LiHisRS": 8, "TcHisRS": 6.742}

Measurements from “University of Dundee, Small-Polar-MMV Screening Library” (2021), ChEMBL document CHEMBL3988442.